# Assay results published in the supplement of paper PMC10338343.
# ± gives the standard deviation. This is a selection; strong and weak results do not stand in their true shares. Many of these values have a large error.
# How the values were obtained:
# [1] = test system: MILI (PIWIL2) piRISC loaded with piRNA #1 (26 nt); test: pre-steady-state target cleavage rate (min^-1); higher = faster piRNA-guided slicing of the target; conditions: guide: piRNA #1 5'p-UGAGGUAGUAGGUUGUAUAGUAUCCA; auxiliary factor: 500 nM mouse GTSF1
# How it was run: (§1)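 Sequencing of uncleaved targets, normalised to depth and to weakly complementary targets, was the readout of this Cleave-'n-Seq assay. A transcribed, DNA-blocked target RNA library (0.1 nM) was mixed with 1 nM active affinity-purified piRISC carrying one synthetic guide, with or without 500 nM GTSF1 partner protein, in HEPES–potassium acetate buffer at 33 °C for 0–8 or 0–960 min. Three trials were pooled, k3 was capped at 0.0001 min^-1, and a burst-and-steady-state fit gave the pre-steady-state cleavage rate.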
# [2] = test system: EfPiwi piRISC loaded with piRNA #1 (26 nt); test: pre-steady-state target cleavage rate (min^-1); guide: piRNA #1 5'p-UGAGGUAGUAGGUUGUAUAGUAUCCA; MIWI and MILI are mouse PIWI proteins and EfPiwi is from a freshwater sponge; tags in brackets are library labels; higher = faster piRNA-guided slicing of the target; conditions: auxiliary factor: 500 nM Ephydatia muelleri Gtsf1
# How it was run: as §1
Sequence,pre-steady-state target cleavage rate [1],pre-steady-state target cleavage rate [2]
GGAGACCUAUGAUAACUACCUACAACCUCA,0.00217 ± 0.0027,0.000228 ± 0.014
GGAGACCUUACUAUACAAGCUACUACCUGA,0.158 ± 0.021,0.00346 ± 0.003
GGAGACCUAUCUAUACAACCAACUAGCUCA,0.00248 ± 0.0039,0.000814 ± 0.0064
GGAGACCUAACUAUAGAACCUACAACCUCA,0.00273 ± 0.0042,0.000925 ± 0.0098
GGAGACCUAUGAUAUCAACCAACUAGCUCA,0.000275 ± 0.013,0.000232 ± 0.01
GGAGAGGAUACUAUACUACCUACUACGUCA,0.0806 ± 0.01,0.00184 ± 0.0025
GGAGACCUAUCUAUACAUCCUAGUACCUCA,0.0489 ± 0.012,0.00398 ± 0.0038
GGAGACCUAUGAUUACAACCUACUACCCCA,0.00393 ± 0.004,0.00268 ± 0.0044
GGAGACGAUACUAAACAUCCUACUACCUCA,0.267 ± 0.021,0.00359 ± 0.0026
GGAGAGGAUAUUAUACAACCUACUACCUCA,0.157 ± 0.0082,0.0615 ± 0.023
GGAGACCUAUGAUUAGAACCUACUACCUGA,0.000162 ± 0.019,0.000537 ± 0.01
GGAGACCAUACUAUACAAGCUUCUACCUCA,0.036 ± 0.007,0.00306 ± 0.0039
GGAGACCUAUCUAUAGAACCUACUAGCUCA,0.00202 ± 0.0054,0.00103 ± 0.0085
GGAGAGUGAUACUAUACAACCUACUACCUCA,0.227 ± 0.016,0.171 ± 0.053
GGAGUGGAUACUAUACAACCUUCUACGUCA,0.00135 ± 0.0039,0.00426 ± 0.0016
GGAGACCUAUCUAUACAACCAACUACGUCA,0.00385 ± 0.0021,0.00226 ± 0.0057
GGAGACCUUACUAUACAACCUACUAGGACA,0.00167 ± 0.0055,0.00109 ± 0.0048
GGAGACCUAUGUAAUGAACCUACUACCUCA,0.000392 ± 0.0087,0.001 ± 0.0067
GGAGACCAUACUAUACAACCUACUUCGUCA,0.112 ± 0.029,0.00491 ± 0.0039
GGAGACCUAACUAUACAACCUACAACGUCA,0.00458 ± 0.0063,0.000862 ± 0.0091
GGAGACCUUACUAUACAACCUACUCCCUCA,0.0992 ± 0.015,0.00342 ± 0.0031
GGAGACCUAAGUAUACAACCUACUUCCUCA,0.0285 ± 0.0069,0.00301 ± 0.0041
GGAGACCUAUGAUAAGAAGCUACUACCUCA,0.000163 ± 0.025,0.000521 ± 0.0073
GGAGUGGAUACUAUACAACCUACUACAUCA,0.0416 ± 0.0072,0.00707 ± 0.0031
GGAGACCAUACUAUACAAGGUACUACCUCA,0.0713 ± 0.0087,0.00335 ± 0.0029
GGAGACCUAACUAUACAACCUUCUUCCUCA,0.00217 ± 0.0075,0.00182 ± 0.0056
GGAGACCUAUGAUAUCAACCUUCAACCUCA,0.000532 ± 0.0088,0.000202 ± 0.012
GGAGACGAUACUAUACUUCCUACUACCUCA,0.242 ± 0.016,0.0109 ± 0.0064
GGAGACCAUACUAUACAAGCUACAACCUCA,0.212 ± 0.022,0.00169 ± 0.0029
GGAGAGGAUACUAUACAACCUACAACGUCA,0.0017 ± 0.0039,0.00371 ± 0.0017

# Part of the list above, reformatted:
Sequence	pre-steady-state target cleavage rate [1]	pre-steady-state target cleavage rate [2]
GGAGACCUAUGAUAACUACCUACAACCUCA	0.00217 ± 0.0027	0.000228 ± 0.014
GGAGACCUAUGAUUAGAACCUACUACCUGA	0.000162 ± 0.019	0.000537 ± 0.01
